Assay results: PubChem BioAssay AID504444 (National Center for Advancing Translational Sciences (NCATS), 2011)
Several values for one entry are separate records, joined by “and”; a condition that tells them apart may be missing. Equal values may be shown once. About 7,500 (2.1%) of roughly 360,000 compounds were called active. The shares of active, inactive and inconclusive entries below differ from those in the screen. The call rests on the fitted dose curve; in most records, active means well fitted inhibition curve with a large enough effect; inconclusive means small, poorly fitted or top-dose-only effect, or effect the other way; inactive means flat fitted curve, though single readings scatter. Where the call is inconclusive, the potency comes from a doubtful curve fit.

Experiment: Nrf2 qHTS screen for inhibitors; further: nearly all actives have a fitted effect of over 60% in size
Settings: A549 ARE-Fluc reporter, luciferase luminescence, 18-24 h; series mostly up to 46 µM
Summary of the method: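 In this cell-based qHTS, ARE-driven firefly luciferase in A549 cells reports Nrf2 activity; the luminescent signal after BugLite lysis is the measured value, with a prior CellTiter-Fluor read for cell health.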
Potency means the concentration at half of the fitted maximal effect.

Compound	Potency
N=C(N)SCc1ccc(Cl)cc1Cl	inconclusive: 29.1 µM [activator, single point]
Cc1nc(N2CCCCC2)c2c(C)c(C(=O)Nc3ccc4c(c3)OCCO4)sc2n1	inactive
Cc1cccc(OCC2=NS(=O)(=O)c3ccccc3N2)c1	inactive
CCOC(=O)c1cc(-c2ccc(OC)cc2F)nc2c1c(C)nn2CCC#N	inconclusive: 29.1 µM [falling, single point]
Cc1cc(NC(=O)CCc2ccc(S(=O)(=O)N3CCOCC3)cc2)n(-c2ccccc2)n1	inconclusive: 29.1 µM [falling, single point]
OC(c1nc2ccc(F)cc2[nH]1)C(O)c1nc2ccc(F)cc2[nH]1 (stereo not drawn)	inconclusive: 16.4 µM [falling, single point]
Cc1cc(C)n2nc(CNC(=O)c3cccc(N(C)C)c3)nc2n1	inconclusive: 14.6 µM [activator, partial curve]
COc1cccc(C(=O)NNC(=O)c2cccc(F)c2)c1	inconclusive: 7.31 µM [activator, partial curve]
Nc1nc(N2CCN(c3ccccn3)CC2)nc2ccccc12	inconclusive: 29.1 µM [falling, single point]
CN(Cc1ccc(F)cc1)C(=O)CCc1nnc(-c2ccccc2)o1	inconclusive: 5.17 µM [activator, full curve]
CCc1ccc(NC(=S)N2CCN(c3cccc(C(F)(F)F)c3)CC2)cc1	inconclusive: 8.2 µM [falling, partial curve]
Cc1noc2ncnc(NCCc3ccccc3)c12	inconclusive: 20.6 µM [falling, partial curve, poor fit]
Cc1nc2c(-c3ccccc3)c(C)nn2c(N)c1-c1ccccc1	inconclusive: 1.3 µM [activator, full curve]
CC(=O)Nc1ccc(S(=O)(=O)N2CCC(NC(=O)C(Cc3cccn3C)NC(C)=O)CC2)cc1 (stereo not drawn)	inconclusive: 4.11 µM [falling, single point]
CCOc1ccccc1NC(=O)c1cc(=O)c2ccccc2o1	inactive
C[C@H](NC(=O)c1nc[nH]c1C(=O)N[C@@H](C)c1ccccc1)C(=O)OC(C)(C)C	inconclusive: 29.1 µM [falling, single point]
COc1ccccc1-c1sc2cc3c(cc2c1-c1ccc(OCCN2CCOCC2)cc1)OCO3	inconclusive: 16.4 µM [falling, partial curve]
COc1ccc(N2CCN(C(=O)c3ccc4c(c3)CCN4S(=O)(=O)c3ccccc3)CC2)cc1	inconclusive: 29.1 µM [falling, single point] and inconclusive: 18.4 µM [falling, single point]
O=C(N/N=C/c1ccoc1)c1cc(O)cc(O)c1	inconclusive: 29.1 µM [activator, single point]
CCCc1nc2c(c(=O)c3ccccc3n2C)c(=O)n1C1CCCCCC1	active: 23.1 µM
COc1ccccc1CNCC(=O)Nc1cc(S(=O)(=O)N2CCCCC2)ccc1C	inactive
CC1CCCC(NC(=O)CCC(=O)NCc2ccccc2)C1C (stereo not drawn)	inactive
CN1CCN(c2ccc(NC(=O)c3cc4ccccc4o3)cc2)CC1	inconclusive: 2.31 µM [activator, full curve]

Compound	Potency
CCOC(=O)c1cccc(NC(=O)c2ccc(N(C)C)cc2)c1	active: 16.4 µM
O=C(Nc1ccccc1)c1cccc(NC(=O)c2ccco2)c1	inconclusive: 29.1 µM [falling, single point]
COc1cc(NC(=O)CSc2cc(=O)n(C)c3ccccc23)cc(OC)c1OC	active: 20.6 µM
CCOC(=O)c1sc2ccccc2c1OC(=O)c1ccccc1OC	active: 4.61 µM
CC(NCc1ccc2c(c1)n(C)c(=O)n2C)c1ccccc1 (stereo not drawn)	inactive
CCOc1ccccc1NC(=O)Cn1c(=O)c2ccccc2n(CC)c1=O	inconclusive: 5.8 µM [falling, partial curve, poor fit]
CC(=O)c1c(C)[nH]c(C(=O)Nc2cc(S(=O)(=O)N3CCCCC3)ccc2C)c1C	inconclusive: 29.1 µM [falling, single point]
CCOC(=O)c1ccc2nc(Nc3nc4ccc(F)cc4s3)sc2c1	inconclusive: 20.6 µM [activator, partial curve, poor fit]
COc1ccccc1C(=O)NCCC(=O)NC1CCC(C)CC1 (stereo not drawn)	inconclusive: 23.1 µM [activator, single point]
COc1ccc(NS(=O)(=O)c2ccc(NC(=O)c3ccc(N(C)S(C)(=O)=O)cc3)cc2)c(OC)c1	active: 1.84 µM
O=C(COc1ccc2c(-c3ccccc3)cc(=O)oc2c1)Nc1ccc(CCO)cc1	active: 10.3 µM
c1ccc(-c2nnc(CSc3nnc(-c4ccncc4)n3Cc3ccco3)o2)cc1	inconclusive: 0.731 µM [falling, partial curve]
C=CCn1c(SCCOc2ccc(OC)cc2)nnc1C(C)NC(=O)Cc1ccc(OC)cc1 (stereo not drawn)	active: 23.1 µM
Cc1nc(N2CCN(c3ccccc3O)CC2)c2c(-c3ccccc3)csc2n1	inconclusive: 20.6 µM [falling, single point]
CC(C)n1cc(-c2ccc(Cl)cc2)cc(C#N)c1=O	inactive
Cc1ccc(NS(=O)(=O)c2ccc3nc(-c4ccccc4)[nH]c3c2)cc1Cl	inconclusive: 29.1 µM [falling, single point]
CCOC(=O)c1cc(OC(=O)c2cccc([N+](=O)[O-])c2)n(-c2ccccc2)n1	inactive
Clc1ccc(/C=N/Nc2nc(Cl)nc3ccccc23)cc1	inconclusive: 32.6 µM [activator, single point]
O=C(Nc1cnn(Cc2ccccc2)c1)c1nc2ncccn2n1	inconclusive: 11.6 µM [activator, partial curve]
CC(Cc1ccc(Cl)cc1)N1CCC(n2nccc2NC(=O)C2CCCC2)CC1 (stereo not drawn)	inconclusive: 25.9 µM [falling, single point]
C/C(=N\Nc1ccc2nncn2n1)c1ccco1	inactive
CSc1nn(CC(=O)Nc2ccc(C)cc2C)c(N)c1S(=O)(=O)c1ccc(Cl)cc1	inactive
Cc1cc(C(F)(F)F)nc(SCC(=O)c2cccc([N+](=O)[O-])c2)n1	inconclusive: 0.206 µM [falling, full curve, poor fit]

Three compounds already listed, ordered by length of the SMILES, descending.
Compound	Potency
O=C(COc1ccc2c(-c3ccccc3)cc(=O)oc2c1)Nc1ccc(CCO)cc1	active: 10.3 µM
COc1cc(NC(=O)CSc2cc(=O)n(C)c3ccccc23)cc(OC)c1OC	active: 20.6 µM
O=C(Nc1ccccc1)c1cccc(NC(=O)c2ccco2)c1	inconclusive: 29.1 µM [falling, single point]

More entries

Compound	Potency
CCOC(=O)N1CCN(c2ncc3c(n2)CC(c2ccc(OC)c(OC)c2)CC3=O)CC1 (stereo not drawn)	inconclusive: 23.1 µM [falling, single point]
O=C(COc1ccc2ccc(=O)oc2c1)NC1CCCCC1	inactive
Cc1nn(C)c(Cl)c1CN1CCCC(C(=O)Nc2cccc(-n3cccn3)c2)C1 (stereo not drawn)	inconclusive: 23.1 µM [falling, single point]
CCOC(=O)c1c(C)[nH]c(C(=O)OCC(=O)N2c3ccccc3CC2C)c1C (stereo not drawn)	inconclusive: 29.1 µM [falling, single point]
O=C(N/N=C/c1ccccc1C(F)(F)F)c1ccc2nc[nH]c2c1	inconclusive: 23.1 µM [falling, single point]
Cc1nc(-c2cccc(C(F)(F)F)c2)sc1C(=O)O	inconclusive: 9.2 µM [activator, partial curve]
CN(C)c1ccc(NC(=O)c2cn(-c3ccccc3)nc2-c2cccs2)cc1	inconclusive: 14.6 µM [falling, single point]
O=C(O)c1cccc(NC2=C(n3nnc4ccccc43)C(=O)c3ccccc3C2=O)c1	inconclusive: 29.1 µM [falling, single point]
Cc1ccc(OCc2cc(C(=O)NC(C)Cc3cccnc3)no2)cc1C (stereo not drawn)	inconclusive: 2.31 µM [activator, partial curve, poor fit]
CCOC(=O)c1cnc(SCc2nc(N)nc(Nc3ccc(C)cc3)n2)nc1N	inconclusive: 18.4 µM [falling, single point]
COc1ccc(CCNC(=O)CCc2c(C)nc3cc(-c4ccc(Cl)cc4)nn3c2C)c(OC)c1	inconclusive: 1.84 µM [falling, full curve, poor fit]
CCOc1ccc(-c2nnn(CC(=O)N3CCCC(C)C3)n2)cc1 (stereo not drawn)	inconclusive: 25.9 µM [falling, single point]
CCCCCC(=O)Nc1cccc(C2=NOC3(C2)C[C@@H](C(N)=O)N(C(=O)C2(C)CC2)C3)c1 (stereo partly drawn)	inactive
CCCNC(=O)NC(=O)CSc1ccc(C)cc1C	inconclusive: 7.31 µM [falling, partial curve, poor fit]
COc1cc(OC)c(OC)cc1CN(C)CC1CCCN(CCc2ccccc2F)C1 (stereo not drawn)	inconclusive: 4.61 µM [falling, single point]
CCC(C)c1ccc(NC(=O)N2CCOCC2)cc1 (stereo not drawn)	inconclusive: 23.1 µM [activator, single point]
O=C(Nc1ccsc1C(=O)O)c1cccc(Oc2ccccc2)c1	inconclusive: 1.84 µM [activator, full curve]
CCCCOc1ccccc1NC(=O)CC1Sc2ccccc2NC1=O (stereo not drawn)	inactive
Cc1cc(C(=O)COC(=O)c2ccccc2O)c(C)n1CC1CCCO1 (stereo not drawn)	inconclusive: 32.6 µM [falling, single point]
Cc1ccccc1Oc1ccc(Oc2ccccc2C)nn1	inconclusive: 5.17 µM [activator, partial curve]
Cc1cc(Nc2ccc(Br)cc2)nc(-c2ccccc2O)n1	inconclusive: 14.6 µM [falling, partial curve, poor fit]
COc1ccc(NC(=O)c2sc3nc4n(c(=O)c3c2C)CCC4)c(OC)c1	inconclusive: 20.6 µM [falling, single point]
